Taken from: PubChem BioAssay AID1259254 (NCATS, 2017)
This is one part, drawn at random, of about 59,000 reagents. About 1,550 of all reagents (2.6%) were called active. 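G2 share is only a proxy for re-replication; each gene was hit by three separate siRNAs, and active genes were retested.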 Further read-outs or replicates are left out here. Not given: the amount of reagent.

Test: 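Gene knock-downs that lead to re-replication, shown by excess G2 DNA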 (primary screen)
Cells: human HCT116 colorectal cancer cells
Knock-down reagent: single siRNA against human genes
Timing: 3 days
Measurement: 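Nuclei stained with Hoechst and imaged; cell-cycle phase assigned by DNA content; G2 share scaled per plate, non-targeting siRNA 0%, GMNN siRNA 100%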
Direction: G2 robust z-score: higher = more G2 cells, more excess DNA replication
Call rule: 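Active siRNAs have a G2 robust z of 5 or more median absolute deviations over the median, which in these data means about 38% or higher of GMNN control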

G2 robust z-score, by target gene and reagent
CYB561A3 (cytochrome b561 family member A3): SID160761467 0.41 inactive; SID160761468 2.59 inactive; SID160761469 -0.173 inactive
SLC31A2: SID160746789 2.81 inactive; SID160746800 0.0251 inactive; SID160746809 2.12 inactive
MS4A3 (membrane spanning 4-domains A3): SID160738656 0.567 inactive; SID160738668 0.248 inactive; SID160738677 -1.29 inactive
FOXO3 (forkhead box O3): SID160766320 -0.608 inactive; SID160766330 -0.957 inactive; SID160766331 -0.525 inactive
GMNN (geminin DNA replication inhibitor): SID160739924 12.8 active; SID160739925 19.4 active; SID160739926 8.44 active

5 entries from above, reformatted:
{"Target gene":"SLC31A2","PubChem SID":"SID160746789","G2 robust z-score":2.81,"Outcome":"inactive"}
{"Target gene":"SLC31A2","PubChem SID":"SID160746800","G2 robust z-score":0.0251,"Outcome":"inactive"}
{"Target gene":"SLC31A2","PubChem SID":"SID160746809","G2 robust z-score":2.12,"Outcome":"inactive"}
{"Target gene":"MS4A3 (membrane spanning 4-domains A3)","PubChem SID":"SID160738656","G2 robust z-score":0.567,"Outcome":"inactive"}
{"Target gene":"MS4A3 (membrane spanning 4-domains A3)","PubChem SID":"SID160738668","G2 robust z-score":0.248,"Outcome":"inactive"}

The list goes on:
G2 robust z-score, by target gene and reagent
COL4A4 (collagen type IV alpha 4 chain): SID160732449 -0.37 inactive; SID160745896 2.26 inactive; SID160745907 -0.235 inactive
ABI3 (ABI family member 3): SID160740352 -1.19 inactive; SID160740354 -0.455 inactive; SID160740355 -0.497 inactive
OR1M1 (olfactory receptor family 1 subfamily M member 1): SID160756361 0.636 inactive; SID160756362 -1.3 inactive; SID160756363 -0.335 inactive
TMEM125 (transmembrane protein 125): SID160756716 -1.01 inactive; SID160756717 0.103 inactive; SID160756718 -0.384 inactive
FBXL8 (F-box and leucine rich repeat protein 8): SID160733600 -0.476 inactive; SID160743575 4.29 inactive; SID160743576 -0.481 inactive
